Source: patent US20100255006A1
No constants are given. Whether binding was seen depends on the method and setting. For some of these results: Binding seen in cells or lysates may run through a third protein. Some binding calls cover weakened binding; strength is not graded here.

By UniProt entry, the sequences of proteins in these tests, tags left out. Where a name states a change or a piece, a line headed by the entry shows the natural chain unless it says otherwise. Residues count along the entry.
UniProt P29466: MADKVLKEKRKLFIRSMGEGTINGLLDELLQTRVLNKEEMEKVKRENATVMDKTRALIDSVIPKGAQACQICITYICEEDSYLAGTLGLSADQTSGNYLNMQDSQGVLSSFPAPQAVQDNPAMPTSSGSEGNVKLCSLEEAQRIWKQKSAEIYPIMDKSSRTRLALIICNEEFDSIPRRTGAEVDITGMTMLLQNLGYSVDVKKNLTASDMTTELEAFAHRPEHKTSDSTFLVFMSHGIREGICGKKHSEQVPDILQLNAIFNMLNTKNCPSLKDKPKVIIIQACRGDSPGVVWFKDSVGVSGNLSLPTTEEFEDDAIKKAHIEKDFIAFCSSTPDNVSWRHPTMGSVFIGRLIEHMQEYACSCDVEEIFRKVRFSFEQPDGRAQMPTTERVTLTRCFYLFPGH
CARD of caspase-1 (mammalian two-hybrid construct): residues 1-91 of P29466
UniProt Q9ULZ3: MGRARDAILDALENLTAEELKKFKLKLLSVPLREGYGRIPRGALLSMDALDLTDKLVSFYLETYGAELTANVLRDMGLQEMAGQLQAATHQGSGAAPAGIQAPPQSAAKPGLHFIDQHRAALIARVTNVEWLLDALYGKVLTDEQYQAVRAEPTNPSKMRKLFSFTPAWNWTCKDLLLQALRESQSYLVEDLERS

How the values were obtained:
T7-tagged caspase-1 [1] = target: T7-tagged caspase-1 (UniProt P29466); test: co-immunoprecipitation with anti-HA antibodies, immunoblot with an anti-caspase-1 antibody (legend of FIG. 13B)
T7-tagged caspase-1 [2] = target: T7-tagged caspase-1 (UniProt P29466); test: co-immunoprecipitation with anti-HA antibodies, immunoblot with an anti-caspase-1 antibody
[3] = target: CARD of caspase-1 (mammalian two-hybrid construct) (UniProt P29466); test: mammalian two-hybrid in 293T cells, luciferase reporter
[4] = target: CARD of caspase-1 (mammalian two-hybrid construct) (UniProt P29466); test: mammalian two-hybrid (legend of FIG. 13A)

Substance | binding (T7-tagged caspase-1 [1]) | binding (T7-tagged caspase-1 [2]) | binding [3] | binding [4]
HA-tagged CARD-5 (from UniProt Q9ULZ3 1-195) | binds | binds | – | –
CARD of CARD-5 (mammalian two-hybrid construct) (from UniProt Q9ULZ3 107-195) | – | – | binds | binds
